{"source": "paper PMC11068889", "binders": {"B1": {"name": "Dvl2 (protein, UniProt Q60838 1-736)", "chain": "MAGSSAGGGGVGETKVIYHLDEEETPYLVKIPVPAERITLGDFKSVLQRPAGAKYFFKSMDQDFGVVKEEISDDNARLPCFNGRVVSWLVSSDTPQPEVAPPAHESRTELVPPPPPLPPLPPERTSGIGDSRPPSFHPNVSSSHENLEPETETESVVSLRRDRPRRRDSSEHGAGGHRPGGPSRLERHLAGYESSSTLMTSELESTSLGDSDEDDTMSRFSSSTEQSSASRLLKRHRRRRKQRPPRMERTSSFSSVTDSTMSLNIITVTLNMEKYNFLGISIVGQSNERGDGGIYIGSIMKGGAVAADGRIEPGDMLLQVNDMNFENMSNDDAVRVLRDIVHKPGPIVLTVAKCWDPSPQAYFTLPRNEPIQPIDPAAWVSHSAALTGAFPAYPGSSSMSTITSGSSLPDGCEGRGLSVHMDMASVTKAMAAPESGLEVRDRMWLKITIPNAFLGSDVVDWLYHHVEGFPERREARKYASGLLKAGLIRHTVNKITFSEQCYYVFGDLSGGCESYLVNLSLNDNDGSSGASDQDTLAPLPGATPWPLLPTFSYQYPAPHPYSPQPPPYHELSSYTYGGGSASSQHSEGSRSSGSTRSDGGAGRTGRPEERAPESKSGSGSESELSSRGGSLRRGGEPGGTGDGGPPPSRGSTGAPPNLRALPGLHPYGAPSGMALPYNPMMVVMMPPPPPPVSTAVQPPGAPPVRDLGSVPPELTASRQSFHMAMGNPSEFFVDVM"}}, "target": "T1, Disabled 2 (Dab2) (mouse (endogenous in primary keratinocytes)) (UniProt P98078)", "T1 sequence": "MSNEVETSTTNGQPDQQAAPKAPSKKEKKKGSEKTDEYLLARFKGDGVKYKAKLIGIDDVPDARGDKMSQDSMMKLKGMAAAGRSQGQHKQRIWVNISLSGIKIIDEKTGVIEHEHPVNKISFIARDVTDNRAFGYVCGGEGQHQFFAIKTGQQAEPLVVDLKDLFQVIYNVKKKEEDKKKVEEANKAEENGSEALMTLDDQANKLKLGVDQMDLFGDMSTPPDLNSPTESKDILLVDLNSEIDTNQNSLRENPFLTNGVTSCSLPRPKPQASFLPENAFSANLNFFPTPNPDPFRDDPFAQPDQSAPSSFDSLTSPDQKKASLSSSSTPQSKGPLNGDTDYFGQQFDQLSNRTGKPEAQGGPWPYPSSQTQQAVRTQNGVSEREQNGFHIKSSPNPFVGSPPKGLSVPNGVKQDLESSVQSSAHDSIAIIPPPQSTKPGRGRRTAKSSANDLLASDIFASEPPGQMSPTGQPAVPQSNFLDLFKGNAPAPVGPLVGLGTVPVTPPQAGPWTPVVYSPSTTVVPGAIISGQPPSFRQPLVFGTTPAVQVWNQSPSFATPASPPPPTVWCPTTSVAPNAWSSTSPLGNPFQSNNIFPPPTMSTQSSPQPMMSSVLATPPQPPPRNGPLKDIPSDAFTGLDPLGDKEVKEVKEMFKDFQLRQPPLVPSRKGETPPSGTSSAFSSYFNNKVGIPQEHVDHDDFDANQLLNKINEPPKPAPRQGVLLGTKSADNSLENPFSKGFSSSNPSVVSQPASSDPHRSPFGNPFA", "test": "co-IP; WT mouse primary keratinocyte lysate in IP lysis buffer (150 mM NaCl, 25 mM Tris-HCl pH 7.9, 5 mM MgCl2, 10% glycerol, 0.2 mM EDTA, 0.1% NP-40); anti-Dab2 antibody or control IgG overnight, Protein A/G agarose beads 4 h at 4 °C; immunoblotting", "note": "These are yes or no findings as the source states them, for the method shown. Binding seen in cells or lysates may run through a third protein. Some entries that bind do so weakly or less than the wild type."}
{"binder": "B1", "values": [{"measurement": "binding", "result": "binds"}]}
